For at least one entry, the source does not settle the construct or the ends of the probe. Results from cells or extracts need not show a direct contact. For part of these data: At least one verdict was read from the data and is not stated in words by the source. For part of these data: Protein sequences can lack the tags named with them.
Key:
TsTAF6 + TsTAF9 [1] = experiment: EMSA; settings: nuclear extract, no supershift on this probe, 5 mM Mg2+; 50 mM Tris-HCl (pH not stated), 250 mM NaCl, 5 mM MgCl2, 2.5 mM EDTA, 2.5 mM DTT (printed DDT), 20% glycerol, 1 ug poly(dI-dC), 50 fmol probe, 5 or 10 ug nuclear extract; protein in an extract; label: 32P or GelRed
[2] = biological target: T1, TsTBP1 (Taenia solium (cysticerci)) (UniProt A0A0N7FYW4); experiment: EMSA supershift; settings: anti-TsTBP1-N, 5 mM Mg2+; 50 mM Tris-HCl (pH not stated), 250 mM NaCl, 5 mM MgCl2, 2.5 mM EDTA, 2.5 mM DTT (printed DDT), 20% glycerol, 1 ug poly(dI-dC), 50 fmol probe, 5 or 10 ug nuclear extract; protein in an extract; label: 32P or GelRed
T1 sequence (looked up, limits assumed): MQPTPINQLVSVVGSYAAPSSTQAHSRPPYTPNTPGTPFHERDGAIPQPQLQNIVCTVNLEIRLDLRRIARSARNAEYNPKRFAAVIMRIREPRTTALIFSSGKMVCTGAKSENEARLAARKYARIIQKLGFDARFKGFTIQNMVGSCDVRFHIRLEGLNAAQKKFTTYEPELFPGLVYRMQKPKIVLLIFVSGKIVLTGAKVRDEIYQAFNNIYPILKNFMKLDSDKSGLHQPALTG

TsTAF6 + TsTAF9 [3] = experiment: EMSA supershift; settings: anti-TAF6 or anti-TAF9, separate lanes, 5 mM Mg2+; 50 mM Tris-HCl (pH not stated), 250 mM NaCl, 5 mM MgCl2, 2.5 mM EDTA, 2.5 mM DTT (printed DDT), 20% glycerol, 1 ug poly(dI-dC), 50 fmol probe, 5 or 10 ug nuclear extract; protein in an extract; label: 32P or GelRed

GAGCCGAGTGGTTGTGCCTCCATAG (double strand) [Consensus DPE probe (DmDPE)]
binding result (TsTAF6 + TsTAF9 [1]): binds

GCGCTTCGCTATATTTGGCGGTAAG (double strand) [Ts2-CysPrx TATA-box]
binding result [2]: binds

TCCGGGTTCTGTCGAGCAGATGCAG (double strand) [Tstbp1-DPE probe]
binding result (TsTAF6 + TsTAF9 [3]): binds
